Experimental data: PubChem BioAssay AID1053208 (Peter MacCallum Cancer Centre, 2014)
Here is an unselected part of about 17,000 deposited reagents. 788 of all reagents (4.7%) were called active. 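Calls rest on z-score classes alone; an extra cut-off of viability at most 70% of control was not applied to them.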 Entries without a mark were called inactive. Reagent sequences are not shown.

Aim: 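Genes whose silencing cuts survival of bone tumour cells only with doxorubicin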 (primary screen)
Cells: mouse osteosarcoma cells, early-passage culture from an engineered mouse model of fibroblastic bone tumour
Reagent: siRNA pool against mouse genes, 40 nM
Time to read-out: about 120 h (48 h before drug, then 72 h with drug)
Conditions: doxorubicin 100 nM for 72 h, roughly 30-40% inhibitory dose
Measurement: 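Luminescent ATP signal taken as viability with or without 100 nM doxorubicin for 72 h; mean of two wells set against non-targeting siRNA and turned into robust z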
Reading the numbers: viability z-score with doxorubicin and doxorubicin viability vs non-targeting: higher = more viable cells under doxorubicin; viability z-score without drug: higher = more viable cells with knock-down alone; z-score of drug to no-drug ratio: higher = less drug sensitisation by knock-down
Call rule: 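Called active if knock-down leaves viability unchanged without drug (z within -2 to 2) but lowers it with doxorubicin (z at or under -2)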

no.	gene	PubChem SID	combined z-score class	viability z-score with doxorubicin	viability z-score without drug	z-score of drug to no-drug ratio	doxorubicin viability vs non-targeting
1	Sema5a	SID152301502	no change with or without drug	-0.22	0	-0.11	0.92
2	Pnpla2	SID152306960	no change with or without drug	0.34	0.84	-0.11	0.97
3	Sh3glb1	SID152310593	low cell count with doxorubicin only (active)	-2.02	-1.18	-1.35	0.76
4	Gmppb	SID152285797	no change with or without drug	0	0.17	0	0.94
5	2900052L18Rik	SID152335288	no change with or without drug	0	-0.17	0.22	0.94
6	Ltb4r2	SID152310297	high cell count without drug only	0.22	2.02	-0.9	0.96
7	Or5w1	SID152304496	no change with or without drug	-0.67	-0.17	-0.45	0.88
8	Poglut3	SID152287185	no change with or without drug	-0.22	-0.51	0.22	0.92
9	Abhd3	SID152327057	no change with or without drug	-0.22	0.84	-0.67	0.92
10	Ppp1r14b	SID152271635	no change with or without drug	0	-0.17	0.22	0.94
11	Vcan	SID152266552	no change with or without drug	1.35	0.34	1.24	1.06
12	Pole3	SID152307828	no change with or without drug	1.35	0.84	0.9	1.06
13	Rnf126	SID152322517	no change with or without drug	-0.56	0.17	-0.56	0.89
14	Bpnt1	SID152294366	no change with or without drug	0.45	-0.17	0.67	0.98
15	Akr1a1	SID152304642	no change with or without drug	-0.79	1.01	-1.35	0.87
16	Sgce	SID152316579	no change with or without drug	-1.35	-1.85	0	0.82
17	Baz1b	SID152290220	no change with or without drug	1.57	-0.51	2.14	1.08
18	Ehd2	SID152337311	low cell count with doxorubicin only (active)	-2.7	0.67	-3.04	0.7
19	Scgb2b2	SID152268366	no change with or without drug	0.11	-0.67	0.67	0.95
20	Asic3	SID152298618	no change with or without drug	0.34	0.51	0.11	0.97
21	Gpr84	SID152282440	low cell count with doxorubicin only (active)	-2.02	0.17	-2.14	0.76
22	Gtf2h2	SID152296052	no change with or without drug	-0.22	0.17	-0.22	0.92
23	Hoxd4	SID152266315	low cell count with doxorubicin only (active)	-2.47	-0.51	-2.25	0.72
24	Or2y1b	SID152342452	no change with or without drug	1.01	-0.67	1.69	1.03
25	Arhgap26	SID152309634	low cell count with doxorubicin only (active)	-2.47	-1.52	-1.57	0.72
26	Chchd7	SID152298629	no change with or without drug	-0.67	-0.17	-0.45	0.88
27	Agpat4	SID152331716	no change with or without drug	-0.45	-1.18	0.45	0.9
28	Atp5mc1	SID152291186	no change with or without drug	-0.56	-1.35	0.45	0.89
29	Ror2	SID152284731	no change with or without drug	0.45	-0.17	0.67	0.98
30	Rbm34	SID152302867	low cell count without drug only	-0.22	-7.42	9.22	0.92
31	H1f8	SID152283941	no change with or without drug	-0.45	0.51	-0.67	0.9
32	B4galt3	SID152333884	no change with or without drug	0.11	0.17	0.11	0.95
33	Nln	SID152262551	low cell count without drug only	0.56	-2.19	2.59	0.99
34	Ifna4	SID152259436	no change with or without drug	0.22	-0.67	0.79	0.96
35	Socs3	SID152266202	no change with or without drug	-0.45	0	-0.34	0.9
36	Hs3st3a1	SID152319744	no change with or without drug	0.45	0.84	0	0.98
37	Or14j10	SID152287764	no change with or without drug	-0.79	-0.84	-0.11	0.87
38	Coro6	SID152336850	no change with or without drug	-1.01	0.84	-1.46	0.85
39	Vamp7	SID152261895	no change with or without drug	1.01	1.85	-0.11	1.03
40	Slc25a1	SID152300222	no change with or without drug	0	-1.18	1.01	0.94
41	Psd	SID152294542	no change with or without drug	1.35	-0.67	2.02	1.06
42	Or2ag1b	SID152289684	no change with or without drug	-0.22	-1.01	0.56	0.92
43	Eomes	SID152327230	no change with or without drug	1.12	-0.67	1.8	1.04
44	Zfp148	SID152322045	no change with or without drug	0.56	1.18	-0.11	0.99
45	Wfdc18	SID152342265	no change with or without drug	-0.45	0.34	-0.56	0.9
46	Slc51a	SID152303960	no change with or without drug	0.11	1.85	-0.9	0.95
47	Nefm	SID152308451	no change with or without drug	-0.45	-0.84	0.22	0.9
48	Wdr31	SID152286917	no change with or without drug	0.45	1.18	-0.22	0.98
49	Rgs7bp	SID152277784	high cell count without drug only	-0.22	2.19	-1.46	0.92
50	Eif1a	SID152283022	no change with or without drug	-1.12	-0.17	-1.01	0.84
51	Lgals7	SID152277220	no change with or without drug	1.57	1.52	0.67	1.08
52	Unc5d	SID152310313	low cell count with and without drug	-3.71	-2.19	-2.7	0.61
53	Agtr1b	SID152339347	no change with or without drug	0	-1.18	1.01	0.94
54	Ahcyl1	SID152285856	no change with or without drug	0.11	0.84	-0.34	0.95
55	Clec4f	SID152320532	no change with or without drug	-1.8	-1.85	-0.56	0.78
56	Exoc8	SID152332137	no change with or without drug	-0.22	0.34	-0.34	0.92
57	Pomgnt1	SID152336888	no change with or without drug	-1.57	1.18	-2.25	0.8
58	Mansc4	SID152267675	no change with or without drug	-0.45	-0.17	-0.22	0.9
59	Lrrc41	SID152310436	no change with or without drug	0	1.18	-0.67	0.94
60	Grem2	SID152290912	no change with or without drug	0.45	0.51	0.22	0.98
61	Or5ak22	SID152289174	no change with or without drug	-0.11	-0.51	0.34	0.93
62	Or8u3	SID152266195	no change with or without drug	-0.22	-0.84	0.45	0.92
63	Stat5a	SID152259936	no change with or without drug	-1.12	0.34	-1.24	0.84

6 entries from above, ordered by “viability z-score without drug”, highest first:
gene	PubChem SID	combined z-score class	viability z-score with doxorubicin	viability z-score without drug	z-score of drug to no-drug ratio	doxorubicin viability vs non-targeting
Rgs7bp	SID152277784	high cell count without drug only	-0.22	2.19	-1.46	0.92
Lgals7	SID152277220	no change with or without drug	1.57	1.52	0.67	1.08
Wdr31	SID152286917	no change with or without drug	0.45	1.18	-0.22	0.98
Eif1a	SID152283022	no change with or without drug	-1.12	-0.17	-1.01	0.84
Agtr1b	SID152339347	no change with or without drug	0	-1.18	1.01	0.94
Unc5d	SID152310313	low cell count with and without drug	-3.71	-2.19	-2.7	0.61
